Results on 13 molecules are retold here after patent EP4831176A1, “BICYCLIC FUSED HETEROAROMATIC RING DERIVATIVE, AND PHARMACEUTICAL COMPOSITION AND USE THEREOF” (dated 2026).

The data set is described as follows: In vivo pharmacokinetic study in mice (LC/MS/MS of plasma). Particulars: male ICR mice; for Drug elimination half-life T1/2 / Drug exposure AUC0-inf / Maximum drug concentration Cmax / Time to peak concentration Tmax: plasma, study IV 2 mg/kg and PO 10 mg/kg, route of this parameter not given; for Oral bioavailability F: IV 2 mg/kg, PO 10 mg/kg. From the text:
LC/MS/MS method was used to determine the drug concentrations in mouse plasma at different time points after intravenous injection and oral gavage administration of the compounds of the present application. The pharmacokinetic behavior of the compounds of the present application in mice was studied to evaluate their pharmacokinetic characteristics.
1. Experimental protocol: Test animals: Healthy adult male ICR mice, weighing 25-40 g, 6 mice. All mice had free access to food and water. Supplied by Beijing Vital River Laboratory Animal Technology Co., Ltd. Minimum of 3 days adaptation period, SPF area room, indoor temperature maintained at 20-26°C, indoor relative humidity maintained at 40-70%. Illuminated with fluorescent lamps, 12-hour light (08:00-20:00) and 12-hour dark, 2-5 mice per cage (same administration group). Unlimited access to feed (irradiated sterilized, Shaanxi Qinle Pharmaceutical Chemical Co., Ltd., China) and water (tap water purified by ultrapure water filtration system).
2. Animal experiment formulation: • 2.1. 10% DMSO / 40% PEG400 / 5% Tween 80 / 45% saline • 2.1.1 Vehicle formulation preparation: N/A • 2.1.2 Administration formulation preparation: Intravenous injection group: an appropriate amount of API powder was accurately weighed, added to 10% of the final volume of DMSO, and shaken and sonicated to ensure complete dissolution. After dissolution, 40% of the formulation volume of PEG400 and 5% of the formulation volume of Tween 80 were added, followed by vortexing or sonication. Finally, 45% of the formulation volume of saline was added to obtain a clear, transparent solution at a concentration of 0.5 mg/mL. • 2.2 10% HP-β-CD and 50 mM Citrate buffer in water (pH 4.0) • 2.2.1 Vehicle formulation preparation: • 50 mM Citrate buffer solution (pH 4.0): 1.92 g of anhydrous citric acid was weighed and added to 100 mL of purified water, stirred to dissolve, yielding a 100 mM citric acid solution. Separately, 2.94 g of sodium citrate was weighed and added to 100 mL of water, yielding a 100 mM sodium citrate solution. 33 mL of the 100 mM citric acid solution was taken, mixed with 17 mL of the 100 mM sodium citrate solution, mixed well, and diluted to 100 mL to obtain 50 mM citrate buffer at pH 4.0. • 10% HP-β-CD (Hydroxypropyl-β-cyclodextrin) and 50 mM Citrate buffer (pH 4.0) solution: 10 g of hydroxypropyl-β-cyclodextrin was accurately weighed and added to 100 mL of 50 mM Citrate buffer (pH 4.0) aqueous solution, and sonicated to ensure complete dissolution. • 2.2.2 Administration formulation preparation: Oral gavage group: an appropriate amount of API powder was accurately weighed, added to the final volume of 10% HP-β-CD and 50 mM Citrate in water (pH 4.0) solution, and shaken and sonicated to ensure complete dissolution. The mixture was then disrupted using a cell disruptor for 1 minute to obtain a clear, transparent or suspended solution at a concentration of 1 mg/mL. 3. Administration method: before administration, animals meeting the experimental requirements were selected, weighed, and marked. ICR mice were administered 2 mg/kg via tail vein injection and 10 mg/kg via oral gavage. 4. Sample Collection: before sampling, mice were restrained. Blood was collected from each dosed mouse via the submandibular vein at predetermined time points (IV administration: 0.083h, 0.25h, 0.5h, 1h, 2h, 4h, 7h, 24h, 30h, and 48h post-dose, totaling 10 time points; Oral gavage administration: 0.083h, 0.25h, 0.5h, 1h, 2h, 4h, 7h, 24h, 30h, and 48h post-dose, totaling 10 time points), approximately 80 µL of blood was collected each time. The blood was transferred to a 1.5 mL tube pre-filled with K2EDTA, and centrifuged (Eppendorf, Centrifuge 5804R) for 3 min (10000 rpm, 4°C) to separate plasma. The entire process was completed within 15 minutes after blood collection. All samples were stored in a -20°C freezer (Panasonic) until sample analysis. 5. […]

The structures given here were assigned with low confidence; some may be wrong.

`Cn1c(=O)n(C2CCC(=O)NC2=O)c2ccc(N3CCC(CN4CCC(c5ccc(-c6cnc(NCc7c(F)ccc8c7CCO8)n7cc(C#N)nc67)cc5)CC4)CC3)cc21` (centres unmarked): the “Drug elimination half-life T1/2” value is 5.4 h, the “Drug exposure AUC0-inf” value came out at 5058 ng·h/mL, the “Maximum drug concentration Cmax” value is recorded as 385 ng/mL and the “Time to peak concentration Tmax” value was 3.3 h. For the same molecule, the “Oral bioavailability F” value is given as 21.5%.

Consider `Cn1c(=O)n(C2CCC(=O)NC2=O)c2ccc(N3CCC(CN4CCC(c5ccc(-c6cnc(NCc7c(F)ccc8c7CCO8)n7cnc(S(C)(=O)=O)c67)cc5)CC4)CC3)cc21` (centres unmarked), for which the “Drug elimination half-life T1/2” value is reported as 3.8 h, the “Drug exposure AUC0-inf” value was 119 ng·h/mL, the “Maximum drug concentration Cmax” value came out at 23 ng/mL and the “Time to peak concentration Tmax” value stood at 2.0 h. In addition, the “Oral bioavailability F” value is 1.4%.

Turning to `Cn1nc(C2CCC(=O)NC2=O)c2ccc(N3CCC(CN4CCC(c5ccc(-c6cnc(NCc7c(F)ccc8c7CCO8)n7cnc(P(C)(C)=O)c67)cc5)CC4)CC3)cc21` (centres unmarked), the “Drug elimination half-life T1/2” value was 4.5 h, the “Drug exposure AUC0-inf” value was determined as 44 ng·h/mL, the “Maximum drug concentration Cmax” value worked out at 6 ng/mL and the “Time to peak concentration Tmax” value is listed as 2.3 h. The “Oral bioavailability F” value amounted to 0.2%.

Take `Cn1nc(C2CCC(=O)NC2=O)c2ccc(N3CCC(CN4CCC(n5cc(-c6cnc(NCc7c(F)ccc8c7CCO8)n7cnc(Cl)c67)nn5)CC4)CC3)cc21` (centres unmarked): the “Drug elimination half-life T1/2” value came to 4.6 h, the “Drug exposure AUC0-inf” value stood at 13339 ng·h/mL, the “Maximum drug concentration Cmax” value was 917 ng/mL and the “Time to peak concentration Tmax” value is recorded as 6.0 h. Besides, the “Oral bioavailability F” value was 39.2%.

Take `Cc1nc(C2CCN(CC3CCN(c4ccc5c(C6CCC(=O)NC6=O)nn(C)c5c4)CC3)CC2)ccc1-c1cnc(NCc2c(F)ccc3c2CCO3)n2cnc(Cl)c12` (centres unmarked): the “Drug elimination half-life T1/2” value was found to be 13.9 h, the “Drug exposure AUC0-inf” value came to 14055 ng·h/mL, the “Maximum drug concentration Cmax” value came to 613 ng/mL and the “Time to peak concentration Tmax” value was 6.0 h. Moreover, the “Oral bioavailability F” value is listed as 43.3%.

`Cc1nc(C2CCN(CC3CCN(c4ccc5c(C6CCC(=O)NC6=O)nn(C)c5c4)CC3)CC2)ccc1-c1cnc(NCc2c(F)ccc3c2CCO3)n2cnc(F)c12` (centres unmarked): the “Drug elimination half-life T1/2” value was 6.6 h, the “Drug exposure AUC0-inf” value worked out at 8204 ng·h/mL, the “Maximum drug concentration Cmax” value turned out to be 492 ng/mL and the “Time to peak concentration Tmax” value is given as 5.0 h. Also, the “Oral bioavailability F” value amounted to 57.0%.

Consider `Cn1nc(C2CCC(=O)NC2=O)c2ccc(N3CCN(C4CCN(Cc5ncc(-c6cnc(NCc7c(F)ccc8c7CCO8)n7cnc(Cl)c67)cn5)CC4(F)F)CC3)cc21` (centres unmarked), for which the “Drug elimination half-life T1/2” value came to 4.8 h, the “Drug exposure AUC0-inf” value is 36662 ng·h/mL, the “Maximum drug concentration Cmax” value is given as 2543 ng/mL and the “Time to peak concentration Tmax” value is listed as 6.0 h. Further, the “Oral bioavailability F” value stood at 65.4%.

Turning to `Cn1nc(C2CCC(=O)NC2=O)c2cc(F)c(N3CCC(CN4CCC(c5ccc(-c6cnc(NCc7c(F)ccc8c7CCO8)n7cnc(Cl)c67)nn5)CC4)CC3)cc21` (centres unmarked), the “Drug elimination half-life T1/2” value is 6.6 h, the “Drug exposure AUC0-inf” value worked out at 8307 ng·h/mL, the “Maximum drug concentration Cmax” value was 664 ng/mL and the “Time to peak concentration Tmax” value is 3.5 h. In addition, the “Oral bioavailability F” value worked out at 24.5%.

For `Cn1nc(C2CCN(CC3CCN(c4cc5c(cc4F)c(C4CCC(=O)NC4=O)nn5C)CC3)CC2)cc1-c1cnc(NCc2c(F)ccc3c2CCO3)n2cnc(Cl)c12` (centres unmarked), the “Drug elimination half-life T1/2” value is on record as 5.8 h, the “Drug exposure AUC0-inf” value stood at 8401 ng·h/mL, the “Maximum drug concentration Cmax” value amounted to 534 ng/mL and the “Time to peak concentration Tmax” value is recorded as 6.0 h. The “Oral bioavailability F” value was found to be 34.8%.

Regarding `Cc1nc(C(=O)NC2CCN(CC3CCN(c4ccc5c(C6CCC(=O)NC6=O)nn(C)c5c4)CC3)CC2)ccc1-c1cnc(NCc2c(F)ccc3c2CCO3)n2cnc(Cl)c12` (centres unmarked), the “Drug elimination half-life T1/2” value is listed as 7.0 h, the “Drug exposure AUC0-inf” value worked out at 3963 ng·h/mL, the “Maximum drug concentration Cmax” value is recorded as 265 ng/mL and the “Time to peak concentration Tmax” value was 7.0 h. The “Oral bioavailability F” value turned out to be 15.8%.

With `Cc1nc(CCC(=O)NCCOc2ccc(OCC(=O)N[C@H](C(=O)N3C[C@H](O)C[C@H]3C(=O)NCc3ccc(-c4scnc4C)cc3)C(C)(C)C)cc2)ccc1-c1cnc(NCc2c(F)ccc3c2CCO3)n2cnnc12`, the “Drug elimination half-life T1/2” value amounted to 1.1 h, the “Drug exposure AUC0-inf” value came to 40 ng·h/mL, the “Maximum drug concentration Cmax” value stood at 21 ng/mL and the “Time to peak concentration Tmax” value is on record as 0.4 h. Further, the “Oral bioavailability F” value turned out to be 1.7%.

For the molecule `Cc1nc(-c2cnc(NCc3c(F)ccc4c3CCO4)n3cnc(Cl)c23)ccc1C1CCN(CC2CCN(c3ccc4c(C5CCC(=O)NC5=O)nn(C)c4c3)CC2)CC1` (centres unmarked), the “Drug elimination half-life T1/2” value turned out to be 11.7 h, the “Drug exposure AUC0-inf” value is 39355 ng·h/mL, the “Maximum drug concentration Cmax” value is 1667 ng/mL and the “Time to peak concentration Tmax” value is given as 7.0 h. Besides, the “Oral bioavailability F” value is listed as 63.9%.

Take `Cn1c(=O)n(C2CCC(=O)NC2=O)c2ccc(N3CCC(CN4CCC(c5ccc(-c6cnc(NCc7c(F)ccc8c7CCO8)n7cnc(Cl)c67)cc5)CC4)CC3)cc21` (centres unmarked): the “Drug elimination half-life T1/2” value stood at 12.7 h, the “Drug exposure AUC0-inf” value was 19505 ng·h/mL, the “Maximum drug concentration Cmax” value is 785 ng/mL and the “Time to peak concentration Tmax” value was found to be 5.0 h. Besides, the “Oral bioavailability F” value is given as 55.8%.
